# PubChem BioAssay AID1259405, NCATS – 2018
# Purpose: 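Knock-downs that lift recombinant protein yield in hamster ovary cells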 (primary screen)
# Cells: Chinese hamster CHO-K1 ovary cells with stable secreted eGFP expression
# Reagents: single siRNA against mouse genes, 0.8 pmol siRNA per well (2 µl of 400 nM stock)
# Time to read-out: 3 days
# Read-out: 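Per-well intracellular GFP measured by laser scanning cytometry, plus viability from ATP luminescence, each relative to plate median of non-targeting control wells, in %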
# Reading the numbers: GFP, % of control: higher = more GFP per well, higher productivity; viability (ATP), % of control: higher = more viable cells (more ATP)
# Call rule: 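Called active when intracellular GFP, relative to negative control, is at or above 120%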
# The deposit covers about 50,000 reagents; this is an unselected part. Over the whole deposit, about 4,000 (8%) were called active. 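Mouse siRNA library applied to hamster cells; one well for each siRNA.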 A number with no mark means an inactive call. The numbers tell different reagents against one gene apart.
gene,siRNA no.,"GFP, % of control","viability (ATP), % of control"
Mapkapk3 (mitogen-activated protein kinase-activated protein kinase 3),1,119,90.5
"Ptpn20 (protein tyrosine phosphatase, non-receptor type 20)",1,79.4,50.2
"Ptpn20 (protein tyrosine phosphatase, non-receptor type 20)",2,99,70.8
"Ptpn20 (protein tyrosine phosphatase, non-receptor type 20)",3,71.3,90.6
"Ap2b1 (adaptor-related protein complex 2, beta 1 subunit)",1,84.5,39.3
"Ap2b1 (adaptor-related protein complex 2, beta 1 subunit)",2,52.5,61.5
"Ap2b1 (adaptor-related protein complex 2, beta 1 subunit)",3,70.8,75.5
Or5p53 (olfactory receptor family 5 subfamily P member 53),1,87.9,81.9
Or5p53 (olfactory receptor family 5 subfamily P member 53),2,88,89.4
Or5p53 (olfactory receptor family 5 subfamily P member 53),3,55.4,52.8
Foxb2 (forkhead box B2),1,60.1,63.9
Foxb2 (forkhead box B2),2,109,72.8
Foxb2 (forkhead box B2),3,67.8,74.2
Nat8f5 (N-acetyltransferase 8 (GCN5-related) family member 5),1,97.8,81.8
Nat8f5 (N-acetyltransferase 8 (GCN5-related) family member 5),2,84.6,74
Nat8f5 (N-acetyltransferase 8 (GCN5-related) family member 5),3,73.7,51.6
Calhm5 (calcium homeostasis modulator family member 5),1,48.3,62.7
Calhm5 (calcium homeostasis modulator family member 5),2,68.1,79.9
Calhm5 (calcium homeostasis modulator family member 5),3,66.9,84.8
"Ptpn18 (protein tyrosine phosphatase, non-receptor type 18)",1,118,114
"Ptpn18 (protein tyrosine phosphatase, non-receptor type 18)",2,101,91
"Ptpn18 (protein tyrosine phosphatase, non-receptor type 18)",3,68.8,83
"Zfp36l2 (zinc finger protein 36, C3H type-like 2)",1,136 (active),101
"Zfp36l2 (zinc finger protein 36, C3H type-like 2)",2,71.7,62.8
Prmt8 (protein arginine N-methyltransferase 8),1,101,62.4
Prmt8 (protein arginine N-methyltransferase 8),2,90.2,80.3
Prmt8 (protein arginine N-methyltransferase 8),3,76.5,48.4
Mrps9 (mitochondrial ribosomal protein S9),1,111,90.6
Mrps9 (mitochondrial ribosomal protein S9),2,153 (active),114
Mrps9 (mitochondrial ribosomal protein S9),3,72,81.3
"Esx1 (extraembryonic, spermatogenesis, homeobox 1)",1,66.9,85.1
"Esx1 (extraembryonic, spermatogenesis, homeobox 1)",2,57.1,89.5
"Esx1 (extraembryonic, spermatogenesis, homeobox 1)",3,85.7,84.2
"Grem2 (gremlin 2, DAN family BMP antagonist)",1,68.9,83.6
"Grem2 (gremlin 2, DAN family BMP antagonist)",2,24.8,16.8
"Grem2 (gremlin 2, DAN family BMP antagonist)",3,118,87.5
Cstl1 (cystatin-like 1),1,76.7,49.2
Cstl1 (cystatin-like 1),2,84.1,66.5
Cstl1 (cystatin-like 1),3,101,95.6
"Ank1 (ankyrin 1, erythroid)",1,94.6,59.3
"Ank1 (ankyrin 1, erythroid)",2,72.8,72.2
Bmal1 (basic helix-loop-helix ARNT like 1),1,112,121
Bmal1 (basic helix-loop-helix ARNT like 1),2,50,68.3
Bmal1 (basic helix-loop-helix ARNT like 1),3,162 (active),111
Slc52a3,1,65,78.5
Slc52a3,2,55.6,84
Slc52a3,3,54.7,68.6
Or52n3 (olfactory receptor family 52 subfamily N member 3),1,93.2,58.5
Or52n3 (olfactory receptor family 52 subfamily N member 3),2,78.6,83.5
Or52n3 (olfactory receptor family 52 subfamily N member 3),3,74.6,103
Pkp4 (plakophilin 4),1,68.6,61.4
Pkp4 (plakophilin 4),2,68.5,73.3
Pkp4 (plakophilin 4),3,52.5,70

Next part (6 carried over from the part before).
gene,siRNA no.,"GFP, % of control","viability (ATP), % of control"
Or52n3 (olfactory receptor family 52 subfamily N member 3),1,93.2,58.5
Or52n3 (olfactory receptor family 52 subfamily N member 3),2,78.6,83.5
Or52n3 (olfactory receptor family 52 subfamily N member 3),3,74.6,103
Pkp4 (plakophilin 4),1,68.6,61.4
Pkp4 (plakophilin 4),2,68.5,73.3
Pkp4 (plakophilin 4),3,52.5,70
Slc66a3,1,64,76.7
Slc66a3,2,106,54.9
Slc66a3,3,122 (active),61.2
Paqr7 (progestin and adipoQ receptor family member VII),1,83.3,88.4
Paqr7 (progestin and adipoQ receptor family member VII),2,90.1,82.9
Paqr7 (progestin and adipoQ receptor family member VII),3,68,68.8
"Rab30 (RAB30, member RAS oncogene family)",1,94.4,115
"Rab30 (RAB30, member RAS oncogene family)",2,56.1,42.7
"Rab30 (RAB30, member RAS oncogene family)",3,78.3,83.6
Mpp4,1,78.1,78.4
Dlk1 (delta like non-canonical Notch ligand 1),1,58.3,65.3
Dlk1 (delta like non-canonical Notch ligand 1),2,66.8,52.1
Dlk1 (delta like non-canonical Notch ligand 1),3,121 (active),52.2
Synpo2 (synaptopodin 2),1,91.3,54.5
Synpo2 (synaptopodin 2),2,50.1,49
Synpo2 (synaptopodin 2),3,54.4,61.7
Zfp687 (zinc finger protein 687),1,71.8,90.1
Zfp687 (zinc finger protein 687),2,112,85
Gpr19 (G protein-coupled receptor 19),1,72.1,33.5
Gpr19 (G protein-coupled receptor 19),2,87.1,65.7
Gpr19 (G protein-coupled receptor 19),3,37.7,49
"Nfe2 (nuclear factor, erythroid derived 2)",1,105,80.1
"Nfe2 (nuclear factor, erythroid derived 2)",2,31.4,32.2
"Nfe2 (nuclear factor, erythroid derived 2)",3,74.5,118
"Mcph1 (microcephaly, primary autosomal recessive 1)",1,62,80.9
"Mcph1 (microcephaly, primary autosomal recessive 1)",2,129 (active),94.6
"Mcph1 (microcephaly, primary autosomal recessive 1)",3,93.4,62.3
"Sult1a1 (sulfotransferase family 1A, phenol-preferring, member 1)",1,101,89.3
"Sult1a1 (sulfotransferase family 1A, phenol-preferring, member 1)",2,87.3,115
"Sult1a1 (sulfotransferase family 1A, phenol-preferring, member 1)",3,97.4,124
Gpr50 (G-protein-coupled receptor 50),1,93.7,91.5
Gpr50 (G-protein-coupled receptor 50),2,69.5,63.8
Gpr50 (G-protein-coupled receptor 50),3,93.3,60.6
